The results are deposited in PubChem (AID504749; NCATS, 2011).

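A panel of P. falciparum strains inside erythrocytes is exposed to compounds for three days, then a DNA-binding dye reports the amount of parasite DNA.
Each compound was titrated across a series from about 0.000037 to 29 µM.
The number is the fitted AC50, the concentration giving a half-maximal change in signal; a lower value means higher potency, whether the curve shows a decrease or an increase.
Calls follow the curve class and fit quality: every row here is inconclusive, covering signal-raising curves and weak, poorly fitted, partial or highest-dose-only inhibition curves.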

Values are in nM.
Every entry below has the call inconclusive.
These entries are mostly ones the record files as inconclusive; other results of the assay are not listed here.
A potency from a partial, single-point or poor curve is only a rough figure.
The first word of each remark tells which way the curve ran; it can be opposite to the aim of the assay.

SMILES,condition,potency (nM),curve
CC[C@@]1(O)C(=O)OCc2c1cc1n(c2=O)Cc2cc3c(CN(C)C)c(O)ccc3nc2-1,CP262,10690,"inhibitor, partial curve"
CC[C@@]1(O)C(=O)OCc2c1cc1n(c2=O)Cc2cc3c(CN(C)C)c(O)ccc3nc2-1,CP305,6746,"inhibitor, partial curve"
CC[C@@]1(O)C(=O)OCc2c1cc1n(c2=O)Cc2cc3c(CN(C)C)c(O)ccc3nc2-1,ATS189,11220,"inhibitor, partial curve"
NC(=O)C(c1ccccc1)(c1ccccc1)[C@@H]1CCN(CCc2ccc3c(c2)CCO3)C1,SC27B,10000,"inhibitor, single point"
NC(=O)C(c1ccccc1)(c1ccccc1)[C@@H]1CCN(CCc2ccc3c(c2)CCO3)C1,GB4,7569,"inhibitor, partial curve"
NC(=O)C(c1ccccc1)(c1ccccc1)[C@@H]1CCN(CCc2ccc3c(c2)CCO3)C1,PC49,12589,"inhibitor, single point"
NC(=O)C(c1ccccc1)(c1ccccc1)[C@@H]1CCN(CCc2ccc3c(c2)CCO3)C1,CP265,11220,"inhibitor, partial curve"
NC(=O)C(c1ccccc1)(c1ccccc1)[C@@H]1CCN(CCc2ccc3c(c2)CCO3)C1,N140,8912,"inhibitor, single point"
NC(=O)C(c1ccccc1)(c1ccccc1)[C@@H]1CCN(CCc2ccc3c(c2)CCO3)C1,CP260,12589,"inhibitor, single point"
NC(=O)C(c1ccccc1)(c1ccccc1)[C@@H]1CCN(CCc2ccc3c(c2)CCO3)C1,CP256,11220,"inhibitor, single point"
NC(=O)C(c1ccccc1)(c1ccccc1)[C@@H]1CCN(CCc2ccc3c(c2)CCO3)C1,CP237,8912,"inhibitor, partial curve"
NC(=O)C(c1ccccc1)(c1ccccc1)[C@@H]1CCN(CCc2ccc3c(c2)CCO3)C1,DIV30,19011,"inhibitor, partial curve, poor fit"
NC(=O)C(c1ccccc1)(c1ccccc1)[C@@H]1CCN(CCc2ccc3c(c2)CCO3)C1,CP211,8492,"inhibitor, single point"
NC(=O)C(c1ccccc1)(c1ccccc1)[C@@H]1CCN(CCc2ccc3c(c2)CCO3)C1,CP185,11220,"inhibitor, single point"
NC(=O)C(c1ccccc1)(c1ccccc1)[C@@H]1CCN(CCc2ccc3c(c2)CCO3)C1,PC15,12589,"inhibitor, partial curve, poor fit"
NC(=O)C(c1ccccc1)(c1ccccc1)[C@@H]1CCN(CCc2ccc3c(c2)CCO3)C1,TAB109,12589,"inhibitor, single point"
NC(=O)C(c1ccccc1)(c1ccccc1)[C@@H]1CCN(CCc2ccc3c(c2)CCO3)C1,CP262,19011,"activator, single point"
NC(=O)C(c1ccccc1)(c1ccccc1)[C@@H]1CCN(CCc2ccc3c(c2)CCO3)C1,CP305,10690,"inhibitor, partial curve"
NC(=O)C(c1ccccc1)(c1ccccc1)[C@@H]1CCN(CCc2ccc3c(c2)CCO3)C1,PC26,7569,"inhibitor, partial curve, poor fit"
NC(=O)C(c1ccccc1)(c1ccccc1)[C@@H]1CCN(CCc2ccc3c(c2)CCO3)C1,CP191,17782,"inhibitor, single point"
NC(=O)C(c1ccccc1)(c1ccccc1)[C@@H]1CCN(CCc2ccc3c(c2)CCO3)C1,CP217,8912,"inhibitor, single point"
NC(=O)C(c1ccccc1)(c1ccccc1)[C@@H]1CCN(CCc2ccc3c(c2)CCO3)C1,CP291,9528,"inhibitor, partial curve"
NC(=O)C(c1ccccc1)(c1ccccc1)[C@@H]1CCN(CCc2ccc3c(c2)CCO3)C1,AS120,11220,"inhibitor, single point"
NC(=O)C(c1ccccc1)(c1ccccc1)[C@@H]1CCN(CCc2ccc3c(c2)CCO3)C1,CP194,9528,"inhibitor, partial curve"
NC(=O)C(c1ccccc1)(c1ccccc1)[C@@H]1CCN(CCc2ccc3c(c2)CCO3)C1,ATS95,6310,"inhibitor, partial curve"
NC(=O)C(c1ccccc1)(c1ccccc1)[C@@H]1CCN(CCc2ccc3c(c2)CCO3)C1,TAB113,5012,"inhibitor, partial curve"
NC(=O)C(c1ccccc1)(c1ccccc1)[C@@H]1CCN(CCc2ccc3c(c2)CCO3)C1,P93_24,5012,"inhibitor, partial curve"
NC(=O)C(c1ccccc1)(c1ccccc1)[C@@H]1CCN(CCc2ccc3c(c2)CCO3)C1,DFO2036,10000,"inhibitor, single point"
NC(=O)C(c1ccccc1)(c1ccccc1)[C@@H]1CCN(CCc2ccc3c(c2)CCO3)C1,CP268,15101,"inhibitor, partial curve"

Repeated from the top, 3 entries:

With CC[C@@]1(O)C(=O)OCc2c1cc1n(c2=O)Cc2cc3c(CN(C)C)c(O)ccc3nc2-1 [CP262] the assay gave potency 10690 nM (inhibitor, partial curve).
With CC[C@@]1(O)C(=O)OCc2c1cc1n(c2=O)Cc2cc3c(CN(C)C)c(O)ccc3nc2-1 [CP305] the assay gave potency 6746 nM (inhibitor, partial curve).
With CC[C@@]1(O)C(=O)OCc2c1cc1n(c2=O)Cc2cc3c(CN(C)C)c(O)ccc3nc2-1 [ATS189] the assay gave potency 11220 nM (inhibitor, partial curve).